Results on 18 molecules are retold here after PMC9146371.

By UniProt entry, the sequences of proteins in these tests, tags left out. Where a name states a change or a piece, a line headed by the entry shows the natural chain unless it says otherwise. Residues count along the entry.
UniProt O14672: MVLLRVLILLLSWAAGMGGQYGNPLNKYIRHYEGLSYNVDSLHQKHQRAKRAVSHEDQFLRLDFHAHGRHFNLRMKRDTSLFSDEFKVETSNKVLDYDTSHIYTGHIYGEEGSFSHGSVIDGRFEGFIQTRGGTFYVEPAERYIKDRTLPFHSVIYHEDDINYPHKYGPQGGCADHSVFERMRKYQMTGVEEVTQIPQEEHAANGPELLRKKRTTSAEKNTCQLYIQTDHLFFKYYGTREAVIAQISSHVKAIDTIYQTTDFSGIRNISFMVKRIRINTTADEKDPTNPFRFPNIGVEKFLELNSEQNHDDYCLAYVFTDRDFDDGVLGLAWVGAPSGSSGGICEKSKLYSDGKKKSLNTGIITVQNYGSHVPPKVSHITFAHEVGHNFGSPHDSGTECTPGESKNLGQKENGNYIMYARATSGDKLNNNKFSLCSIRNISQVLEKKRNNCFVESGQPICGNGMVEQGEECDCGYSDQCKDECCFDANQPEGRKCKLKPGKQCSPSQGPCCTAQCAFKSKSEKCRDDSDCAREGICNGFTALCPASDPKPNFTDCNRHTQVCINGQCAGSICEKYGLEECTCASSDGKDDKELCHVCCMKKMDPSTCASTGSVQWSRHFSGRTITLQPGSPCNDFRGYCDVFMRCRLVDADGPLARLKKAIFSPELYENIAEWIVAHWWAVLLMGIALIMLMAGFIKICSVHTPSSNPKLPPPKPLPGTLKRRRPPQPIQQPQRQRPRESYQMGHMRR
UniProt Q96BI3: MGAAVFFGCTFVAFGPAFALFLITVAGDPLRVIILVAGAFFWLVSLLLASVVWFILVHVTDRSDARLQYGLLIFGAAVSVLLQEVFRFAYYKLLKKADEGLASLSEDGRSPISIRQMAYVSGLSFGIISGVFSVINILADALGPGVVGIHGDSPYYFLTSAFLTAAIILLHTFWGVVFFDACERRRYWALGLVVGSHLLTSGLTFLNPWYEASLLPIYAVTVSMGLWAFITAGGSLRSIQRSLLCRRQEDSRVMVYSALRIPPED
UniProt P30532, residues 23-468: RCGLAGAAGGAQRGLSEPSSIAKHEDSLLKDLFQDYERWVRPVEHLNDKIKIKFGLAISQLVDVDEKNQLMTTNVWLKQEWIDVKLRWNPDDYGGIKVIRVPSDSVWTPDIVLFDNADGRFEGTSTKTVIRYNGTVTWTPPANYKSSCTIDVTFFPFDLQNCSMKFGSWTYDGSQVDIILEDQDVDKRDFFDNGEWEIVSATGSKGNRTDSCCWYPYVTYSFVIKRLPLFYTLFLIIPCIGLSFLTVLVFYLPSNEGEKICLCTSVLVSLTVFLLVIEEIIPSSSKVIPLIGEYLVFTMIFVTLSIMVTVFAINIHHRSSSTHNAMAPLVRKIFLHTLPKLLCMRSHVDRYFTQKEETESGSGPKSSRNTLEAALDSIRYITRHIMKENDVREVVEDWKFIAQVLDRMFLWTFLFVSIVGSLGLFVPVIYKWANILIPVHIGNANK
UniProt P08754: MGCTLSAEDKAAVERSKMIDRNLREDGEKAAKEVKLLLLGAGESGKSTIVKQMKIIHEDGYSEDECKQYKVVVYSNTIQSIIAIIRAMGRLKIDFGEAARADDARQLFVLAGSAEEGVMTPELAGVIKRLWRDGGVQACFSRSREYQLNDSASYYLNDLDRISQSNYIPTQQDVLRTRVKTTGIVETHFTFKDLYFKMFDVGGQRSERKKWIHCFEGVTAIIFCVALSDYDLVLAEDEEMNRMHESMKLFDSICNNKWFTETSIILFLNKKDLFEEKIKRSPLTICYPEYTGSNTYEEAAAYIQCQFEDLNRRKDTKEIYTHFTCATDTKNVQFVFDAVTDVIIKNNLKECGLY
UniProt P63092: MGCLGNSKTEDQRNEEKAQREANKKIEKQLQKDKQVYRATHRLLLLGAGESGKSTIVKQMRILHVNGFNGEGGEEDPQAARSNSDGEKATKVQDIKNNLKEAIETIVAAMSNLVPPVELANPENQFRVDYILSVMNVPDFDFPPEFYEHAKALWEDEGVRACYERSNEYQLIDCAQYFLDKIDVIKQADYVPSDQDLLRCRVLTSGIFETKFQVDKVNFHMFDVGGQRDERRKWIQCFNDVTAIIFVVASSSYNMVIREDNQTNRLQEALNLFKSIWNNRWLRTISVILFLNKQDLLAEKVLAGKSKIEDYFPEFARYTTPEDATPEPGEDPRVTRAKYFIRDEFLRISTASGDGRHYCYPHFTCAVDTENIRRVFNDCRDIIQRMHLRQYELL
UniProt O95858: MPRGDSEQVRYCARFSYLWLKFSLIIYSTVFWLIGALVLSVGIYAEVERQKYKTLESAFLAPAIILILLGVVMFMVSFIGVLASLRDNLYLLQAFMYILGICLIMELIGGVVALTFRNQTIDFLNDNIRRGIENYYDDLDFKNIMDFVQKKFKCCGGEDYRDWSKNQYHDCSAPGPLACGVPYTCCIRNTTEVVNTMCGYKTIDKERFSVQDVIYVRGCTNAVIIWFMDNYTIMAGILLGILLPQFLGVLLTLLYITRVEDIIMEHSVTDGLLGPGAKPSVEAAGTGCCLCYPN
UniProt P05067, residues 18-770: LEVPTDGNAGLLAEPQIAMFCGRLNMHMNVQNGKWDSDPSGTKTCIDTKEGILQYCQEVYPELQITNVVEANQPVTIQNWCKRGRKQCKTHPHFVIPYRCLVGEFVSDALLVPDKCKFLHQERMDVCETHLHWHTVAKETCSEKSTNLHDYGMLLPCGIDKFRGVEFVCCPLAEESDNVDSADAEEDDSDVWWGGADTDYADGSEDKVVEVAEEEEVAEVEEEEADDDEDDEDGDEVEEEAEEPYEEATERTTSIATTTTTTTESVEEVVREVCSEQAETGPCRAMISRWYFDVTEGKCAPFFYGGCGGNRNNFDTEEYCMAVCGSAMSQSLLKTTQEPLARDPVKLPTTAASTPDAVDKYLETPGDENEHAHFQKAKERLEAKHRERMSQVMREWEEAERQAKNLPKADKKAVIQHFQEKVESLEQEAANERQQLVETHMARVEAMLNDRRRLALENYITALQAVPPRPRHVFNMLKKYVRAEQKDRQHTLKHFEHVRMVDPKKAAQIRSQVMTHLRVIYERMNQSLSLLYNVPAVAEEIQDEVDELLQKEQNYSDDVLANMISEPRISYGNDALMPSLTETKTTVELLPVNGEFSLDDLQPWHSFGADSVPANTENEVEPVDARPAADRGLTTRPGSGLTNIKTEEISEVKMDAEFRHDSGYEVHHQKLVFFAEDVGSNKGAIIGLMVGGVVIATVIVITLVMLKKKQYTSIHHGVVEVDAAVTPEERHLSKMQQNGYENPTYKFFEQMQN
UniProt P28482: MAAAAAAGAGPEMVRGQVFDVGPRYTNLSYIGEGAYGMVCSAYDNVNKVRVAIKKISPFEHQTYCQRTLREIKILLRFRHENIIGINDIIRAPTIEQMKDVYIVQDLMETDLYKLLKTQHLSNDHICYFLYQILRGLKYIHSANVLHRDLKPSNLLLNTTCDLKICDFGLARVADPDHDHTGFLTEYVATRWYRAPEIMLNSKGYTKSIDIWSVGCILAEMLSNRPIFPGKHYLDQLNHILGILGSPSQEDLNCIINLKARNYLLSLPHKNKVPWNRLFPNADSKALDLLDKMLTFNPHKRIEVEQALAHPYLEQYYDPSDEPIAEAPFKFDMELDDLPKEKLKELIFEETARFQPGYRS
UniProt P27361: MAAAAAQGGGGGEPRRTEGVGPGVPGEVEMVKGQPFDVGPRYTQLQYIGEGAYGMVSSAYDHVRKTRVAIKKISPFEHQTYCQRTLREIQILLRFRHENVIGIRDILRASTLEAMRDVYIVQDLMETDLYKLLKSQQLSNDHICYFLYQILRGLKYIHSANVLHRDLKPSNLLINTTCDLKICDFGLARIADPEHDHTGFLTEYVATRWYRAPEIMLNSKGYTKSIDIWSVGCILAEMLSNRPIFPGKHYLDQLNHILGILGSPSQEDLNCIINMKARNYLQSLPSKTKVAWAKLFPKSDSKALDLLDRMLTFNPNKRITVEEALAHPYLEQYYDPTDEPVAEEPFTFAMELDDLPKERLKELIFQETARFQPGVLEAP
UniProt Q92542, residues 34-709: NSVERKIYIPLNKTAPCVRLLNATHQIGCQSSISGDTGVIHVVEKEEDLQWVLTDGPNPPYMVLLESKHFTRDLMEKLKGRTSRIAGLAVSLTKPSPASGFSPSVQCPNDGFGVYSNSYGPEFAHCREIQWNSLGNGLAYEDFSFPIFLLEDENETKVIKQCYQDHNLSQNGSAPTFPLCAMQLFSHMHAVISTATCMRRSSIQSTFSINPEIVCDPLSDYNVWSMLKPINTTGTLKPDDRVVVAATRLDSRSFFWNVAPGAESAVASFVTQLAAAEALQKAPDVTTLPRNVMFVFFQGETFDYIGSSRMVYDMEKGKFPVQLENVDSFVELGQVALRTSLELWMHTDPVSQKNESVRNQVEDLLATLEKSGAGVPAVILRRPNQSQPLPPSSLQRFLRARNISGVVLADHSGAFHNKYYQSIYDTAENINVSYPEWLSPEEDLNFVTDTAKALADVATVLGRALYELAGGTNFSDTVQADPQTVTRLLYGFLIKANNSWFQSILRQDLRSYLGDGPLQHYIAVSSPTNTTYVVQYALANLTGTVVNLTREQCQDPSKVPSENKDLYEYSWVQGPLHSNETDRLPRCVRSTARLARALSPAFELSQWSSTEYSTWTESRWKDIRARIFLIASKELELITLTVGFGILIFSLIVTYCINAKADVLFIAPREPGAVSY
UniProt P35523: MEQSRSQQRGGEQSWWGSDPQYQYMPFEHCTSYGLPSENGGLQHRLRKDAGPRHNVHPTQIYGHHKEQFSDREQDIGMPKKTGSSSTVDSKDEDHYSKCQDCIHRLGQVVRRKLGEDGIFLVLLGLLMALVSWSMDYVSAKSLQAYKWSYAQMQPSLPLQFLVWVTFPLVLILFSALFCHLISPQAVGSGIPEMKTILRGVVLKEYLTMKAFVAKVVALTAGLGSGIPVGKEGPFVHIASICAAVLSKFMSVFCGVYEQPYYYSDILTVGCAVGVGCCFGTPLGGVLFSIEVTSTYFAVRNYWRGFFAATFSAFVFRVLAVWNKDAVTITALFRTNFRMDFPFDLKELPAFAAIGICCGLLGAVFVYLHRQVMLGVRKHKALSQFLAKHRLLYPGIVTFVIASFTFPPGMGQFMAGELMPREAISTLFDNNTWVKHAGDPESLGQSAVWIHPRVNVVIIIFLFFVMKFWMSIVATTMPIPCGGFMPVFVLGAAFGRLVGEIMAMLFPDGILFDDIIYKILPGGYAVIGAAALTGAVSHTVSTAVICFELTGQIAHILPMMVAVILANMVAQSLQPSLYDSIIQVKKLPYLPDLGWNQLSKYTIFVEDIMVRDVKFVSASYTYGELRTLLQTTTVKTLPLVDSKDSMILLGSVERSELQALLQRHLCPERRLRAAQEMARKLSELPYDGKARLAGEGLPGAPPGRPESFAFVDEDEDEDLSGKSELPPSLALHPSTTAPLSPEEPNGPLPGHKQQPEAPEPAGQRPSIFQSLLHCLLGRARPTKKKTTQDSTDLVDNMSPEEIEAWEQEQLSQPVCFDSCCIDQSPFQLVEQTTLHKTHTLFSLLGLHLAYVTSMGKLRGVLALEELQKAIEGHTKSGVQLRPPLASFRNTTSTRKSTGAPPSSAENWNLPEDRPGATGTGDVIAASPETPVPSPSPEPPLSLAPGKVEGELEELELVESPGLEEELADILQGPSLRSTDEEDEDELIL

Holding throughout (experiment): affinity purification with mass spectrometry; tandem affinity purification (TAP): SF-tagged VLGR1 bait overexpressed in HEK293T cells for 48 h; cleared lysate purified in two steps on Strep-Tactin Superflow beads and anti-FLAG M2 agarose, eluted with desthiobiotin and FLAG peptide; LC-MS/MS; proteins also found in mock-treated cells not considered
The target of experiment [1] is T1, SF-C-VLGR1_CTF (C-terminally Strep II-FLAG-tagged C-terminal fragment of VLGR1) (human) (UniProt Q8WXG9).
T1 sequence: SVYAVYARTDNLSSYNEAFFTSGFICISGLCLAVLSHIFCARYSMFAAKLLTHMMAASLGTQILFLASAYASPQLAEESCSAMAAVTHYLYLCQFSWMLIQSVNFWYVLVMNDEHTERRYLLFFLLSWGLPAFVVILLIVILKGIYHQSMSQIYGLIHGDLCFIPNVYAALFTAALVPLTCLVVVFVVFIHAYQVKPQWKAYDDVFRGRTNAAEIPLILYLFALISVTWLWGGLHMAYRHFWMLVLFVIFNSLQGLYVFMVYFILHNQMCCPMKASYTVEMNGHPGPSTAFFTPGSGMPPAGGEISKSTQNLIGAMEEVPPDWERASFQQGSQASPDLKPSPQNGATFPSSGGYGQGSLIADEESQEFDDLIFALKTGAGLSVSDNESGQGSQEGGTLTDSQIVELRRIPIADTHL

Experiment [2] deals with T2, VLGR1_CTF bait of the VLGR1_CTF TAPs (SF tag at the N- or the C-terminus, not told) (human) (UniProt Q8WXG9).
T2 sequence: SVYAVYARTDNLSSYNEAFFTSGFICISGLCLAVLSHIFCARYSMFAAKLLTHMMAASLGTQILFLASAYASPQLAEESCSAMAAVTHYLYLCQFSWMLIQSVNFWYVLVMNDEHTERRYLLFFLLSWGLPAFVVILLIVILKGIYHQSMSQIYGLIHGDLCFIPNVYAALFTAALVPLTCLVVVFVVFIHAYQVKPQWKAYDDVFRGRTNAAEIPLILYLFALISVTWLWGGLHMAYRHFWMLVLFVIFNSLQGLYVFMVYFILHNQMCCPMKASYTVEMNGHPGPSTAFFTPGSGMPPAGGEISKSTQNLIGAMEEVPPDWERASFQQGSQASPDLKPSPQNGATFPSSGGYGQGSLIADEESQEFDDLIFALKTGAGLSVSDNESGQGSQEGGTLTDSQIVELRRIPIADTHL

In experiment [3] the target is T3, SF-N-VLGR1_CTF (N-terminally Strep II-FLAG-tagged C-terminal fragment of VLGR1) (human) (UniProt Q8WXG9).
T3 sequence: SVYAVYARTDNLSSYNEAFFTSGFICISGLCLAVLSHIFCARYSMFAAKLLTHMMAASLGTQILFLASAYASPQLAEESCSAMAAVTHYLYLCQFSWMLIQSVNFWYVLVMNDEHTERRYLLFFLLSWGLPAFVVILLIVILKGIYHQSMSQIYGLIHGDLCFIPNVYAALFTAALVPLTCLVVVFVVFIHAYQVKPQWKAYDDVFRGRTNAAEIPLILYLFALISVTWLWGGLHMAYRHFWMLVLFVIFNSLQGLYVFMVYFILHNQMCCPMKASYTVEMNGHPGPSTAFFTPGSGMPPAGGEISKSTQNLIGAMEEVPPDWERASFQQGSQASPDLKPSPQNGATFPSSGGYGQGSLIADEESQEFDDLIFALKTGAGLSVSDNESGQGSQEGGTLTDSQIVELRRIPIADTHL

Experiment [4] deals with T4, SF-N-VLGR1_ICD (Strep II-FLAG-tagged intracellular domain of VLGR1) (human) (UniProt Q8WXG9).
T4 sequence: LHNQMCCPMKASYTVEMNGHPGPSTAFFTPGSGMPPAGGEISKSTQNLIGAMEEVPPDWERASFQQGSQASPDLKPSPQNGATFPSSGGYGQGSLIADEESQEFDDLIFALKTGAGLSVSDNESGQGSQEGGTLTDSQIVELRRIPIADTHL

Experiment [5] addresses T4, SF-N-VLGR1_ICD (Strep II-FLAG-tagged intracellular domain of VLGR1) (human). This is another data set of the same source.
In experiment [6] the target is T1, SF-C-VLGR1_CTF (C-terminally Strep II-FLAG-tagged C-terminal fragment of VLGR1) (human). The source holds these as a separate data set.
In experiment [7] the target is T3, SF-N-VLGR1_CTF (N-terminally Strep II-FLAG-tagged C-terminal fragment of VLGR1) (human). This is another data set of the same source.
Experiment [8] addresses T2, VLGR1_CTF bait of the VLGR1_CTF TAPs (SF tag at the N- or the C-terminus, not told) (human). The source holds these as a separate data set.

Read-outs that look alike come from different tables or passages of the source. These are yes or no findings as the source states them, for the method shown. In cells and extracts the contact can be indirect. A yes stands for co-enrichment or nearness to the bait. Other partners may have been found. For part of these data: No binding means not detected with the bait. Where a sequence is shown, tags or fusion partners need not be part of it.

On to ADAM10 (from UniProt O14672), for which the binding entry in experiment [1] is reported as “binds”.

For the molecule APH1A (from UniProt Q96BI3 1-265), the binding entry in experiment [1] is “binds”. On to CHRNA5 (from UniProt P30532 23-468), for which the binding entry in experiment [2] is “binds”. On to “Gαi3 (GNAI3) (from UniProt P08754 1-354)”, for which the binding entry in experiment [1] and in experiment [3] was “binds” throughout. As for Gαs (GNAS) (from UniProt P63092 1-394), the binding entry in experiment [1] and in experiment [3] was “no binding” throughout. On to TSPAN15 (from UniProt O95858 1-294), for which, in experiment [1], the binding result is “binds”. As for “amyloid precursor protein (APP) (from UniProt P05067 18-770)”, the binding entry in experiment [3] was “binds”. For the molecule “mitogen-activated protein kinase MAPK1 (from UniProt P28482 1-360)”, in experiment [4], the binding entry was “binds”. With “mitogen-activated protein kinase MAPK3 (from UniProt P27361 1-379)”, in experiment [4], the binding result is listed as “binds”. As for “nicastrin (NCSTN) (from UniProt Q92542 34-709)”, the binding entry in experiment [1] is “binds”. Take “presenilin PSEN2 (from UniProt P49810 1-448)”: in experiment [1], the binding entry is recorded as “binds”.

As to “voltage-gated Cl- channel CLCN1 (from UniProt P35523 1-988)”, the binding entry in experiment [2] is recorded as “binds”.

B1: whirlin (DFNB31/USH2D) (protein, UniProt Q9P202 1-907)
chain: MNAPLDGLSVSSSSTGSLGSAAGAGGGGGAGLRLLSANVRQLHQALTALLSEAEREQFTHCLNAYHARRNVFDLVRTLRVLLDSPVKRRLLPMLRLVIPRSDQLLFDQYTAEGLYLPATTPYRQPAWGGPDSAGPGEVRLVSLRRAKAHEGLGFSIRGGSEHGVGIYVSLVEPGSLAEKEGLRVGDQILRVNDKSLARVTHAEAVKALKGSKKLVLSVYSAGRIPGGYVTNHIYTWVDPQGRSISPPSGLPQPHGGALRQQEGDRRSTLHLLQGGDEKKVNLVLGDGRSLGLTIRGGAEYGLGIYITGVDPGSEAEGSGLKVGDQILEVNGRSFLNILHDEAVRLLKSSRHLILTVKDVGRLPHARTTVDETKWIASSRIRETMANSAGFLGDLTTEGINKPGFYKGPAGSQVTLSSLGNQTRVLLEEQARHLLNEQEHATMAYYLDEYRGGSVSVEALVMALFKLLNTHAKFSLLSEVRGTISPQDLERFDHLVLRREIESMKARQPPGPGAGDTYSMVSYSDTGSSTGSHGTSTTVSSARNTLDLEETGEAVQGNINALPDVSVDDVRSTSQGLSSFKPLPRPPPLAQGNDLPLGQPRKLGREDLQPPSSMPSCSGTVFSAPQNRSPPAGTAPTPGTSSAQDLPSSPIYASVSPANPSSKRPLDAHLALVNQHPIGPFPRVQSPPHLKSPSAEATVAGGCLLPPSPSGHPDQTGTNQHFVMVEVHRPDSEPDVNEVRALPQTRTASTLSQLSDSGQTLSEDSGVDAGEAEASAPGRGRQSVSTKSRSSKELPRNERPTDGANKPPGLLEPTSTLVRVKKSAATLGIAIEGGANTRQPLPRIVTIQRGGSAHNCGQLKVGHVILEVNGLTLRGKEHREAARIIAEAFKTKDRDYIDFLVTEFNVML
For the molecule B1, the binding entry in experiment [5] is recorded as “binds”.

B2: ephrin beta 1 (EFNB1) (protein, UniProt P98172 28-346)
chain: LAKNLEPVSWSSLNPKFLSGKGLVIYPKIGDKLDIICPRAEAGRPYEYYKLYLVRPEQAAACSTVLDPNVLVTCNRPEQEIRFTIKFQEFSPNYMGLEFKKHHDYYITSTSNGSLEGLENREGGVCRTRTMKIIMKVGQDPNAVTPEQLTTSRPSKEADNTVKMATQAPGSRGSLGDSDGKHETVNQEEKSGPGASGGSSGDPDGFFNSKVALFAAVGAGCVIFLLIIIFLTVLLLKLRKRHRKHTQQRAAALSLSTLASPKGGSGTAGTEPSDIIIPLRTTENNYCPHYEKVSGDYGHPVYIVQEMPPQSPANIYYKV
Consider B2, for which the binding result in experiment [6] is “binds”.

B3: SYNJ2BP (protein, UniProt P57105 1-145)
chain: MNGRVDYLVTEEEINLTRGPSGLGFNIVGGTDQQYVSNDSGIYVSRIKENGAAALDGRLQEGDKILSVNGQDLKNLLHQDAVDLFRNAGYAVSLRVQHRLQVQNGPIGHRGEGDPSGIPIFMVLVPVFALTMVAAWAFMRYRQQL
As to B3, the binding result in experiment [6] is recorded as “binds”.

B4: harmonin (USH1C) (protein, UniProt Q9Y6N9 1-552)
chain: MDRKVAREFRHKVDFLIENDAEKDYLYDVLRMYHQTMDVAVLVGDLKLVINEPSRLPLFDAIRPLIPLKHQVEYDQLTPRRSRKLKEVRLDRLHPEGLGLSVRGGLEFGCGLFISHLIKGGQADSVGLQVGDEIVRINGYSISSCTHEEVINLIRTKKTVSIKVRHIGLIPVKSSPDEPLTWQYVDQFVSESGGVRGSLGSPGNRENKEKKVFISLVGSRGLGCSISSGPIQKPGIFISHVKPGSLSAEVGLEIGDQIVEVNGVDFSNLDHKEAVNVLKSSRSLTISIVAAAGRELFMTDRERLAEARQRELQRQELLMQKRLAMESNKILQEQQEMERQRRKEIAQKAAEENERYRKEMEQIVEEEEKFKKQWEEDWGSKEQLLLPKTITAEVHPVPLRKPKYDQGVEPELEPADDLDGGTEEQGEQDFRKYEEGFDPYSMFTPEQIMGKDVRLLRIKKEGSLDLALEGGVDSPIGKVVVSAVYERGAAERHGGIVKGDEIMAINGKIVTDYTLAEAEAALQKAWNQGGDWIDLVVAVCPPKEYDDELTFF
In the case of B4, the binding result in experiment [5] is recorded as “binds”.

B5: NIPA2 (non-imprinted in the Prader-Willi/Angelman syndrome region protein 2) (protein, UniProt Q8N8Q9 1-360)
chain: MSQGRGKYDFYIGLGLAMSSSIFIGGSFILKKKGLLRLARKGSMRAGQGGHAYLKEWLWWAGLLSMGAGEVANFAAYAFAPATLVTPLGALSVLVSAILSSYFLNERLNLHGKIGCLLSILGSTVMVIHAPKEEEIETLNEMSHKLGDPGFVVFATLVVIVALILIFVVGPRHGQTNILVYITICSVIGAFSVSCVKGLGIAIKELFAGKPVLRHPLAWILLLSLIVCVSTQINYLNRALDIFNTSIVTPIYYVFFTTSVLTCSAILFKEWQDMPVDDVIGTLSGFFTIIVGIFLLHAFKDVSFSLASLPVSFRKDEKAMNGNLSNMYEVLNNNEESLTCGIEQHTGENVSRRNGNLTAF
Consider B5, for which the binding entry in experiment [6] and in experiment [7] was “binds” throughout.

B6: voltage-gated Cl- channel CLCN7 (protein, UniProt P51798 1-805)
chain: MANVSKKVSWSGRDRDDEEAAPLLRRTARPGGGTPLLNGAGPGAARQSPRSALFRVGHMSSVELDDELLDPDMDPPHPFPKEIPHNEKLLSLKYESLDYDNSENQLFLEEERRINHTAFRTVEIKRWVICALIGILTGLVACFIDIVVENLAGLKYRVIKGNIDKFTEKGGLSFSLLLWATLNAAFVLVGSVIVAFIEPVAAGSGIPQIKCFLNGVKIPHVVRLKTLVIKVSGVILSVVGGLAVGKEGPMIHSGSVIAAGISQGRSTSLKRDFKIFEYFRRDTEKRDFVSAGAAAGVSAAFGAPVGGVLFSLEEGASFWNQFLTWRIFFASMISTFTLNFVLSIYHGNMWDLSSPGLINFGRFDSEKMAYTIHEIPVFIAMGVVGGVLGAVFNALNYWLTMFRIRYIHRPCLQVIEAVLVAAVTATVAFVLIYSSRDCQPLQGGSMSYPLQLFCADGEYNSMAAAFFNTPEKSVVSLFHDPPGSYNPLTLGLFTLVYFFLACWTYGLTVSAGVFIPSLLIGAAWGRLFGISLSYLTGAAIWADPGKYALMGAAAQLGGIVRMTLSLTVIMMEATSNVTYGFPIMLVLMTAKIVGDVFIEGLYDMHIQLQSVPFLHWEAPVTSHSLTAREVMSTPVTCLRRREKVGVIVDVLSDTASNHNGFPVVEHADDTQPARLQGLILRSQLIVLLKHKVFVERSNLGLVQRRLRLKDFRDAYPRFPPIQSIHVSQDERECTMDLSEFMNPSPYTVPQEASLPRVFKLFRALGLRHLVVVDNRNQVVGLVTRKDLARYRLGKRGLEELSLAQT
Take B6: in experiment [8], the binding result is on record as “binds”.
